# Reference: PubChem BioAssay AID504444 (National Center for Advancing Translational Sciences (NCATS), 2011)
# Out of some 360,000 compounds screened, about 7,500 (2.1%) were called active. Inconclusive means that the source gave no clear call. Such entries were picked first, then a sample of the others. Calls follow the shape of the dose curve; as a rule, active = well fitted inhibition curve with a large enough effect; inconclusive = small, poorly fitted or top-dose-only effect, or effect the other way; inactive = flat fitted curve, though single readings scatter. Potencies beside an inconclusive call are fits to weak or partial responses and may not hold up.
# Test: Nrf2 qHTS screen for inhibitors; also: nearly all actives have a fitted effect of over 60% in size
# Details: A549 ARE-Fluc reporter, luciferase luminescence, 18-24 h; series mostly up to 46 µM
# Method in brief: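 A549 ARE_Fluc cells (5000/well, 5% FBS OPTI-MEM) pre-incubated 2 h, then treated with compounds 18-24 h at 37C/5% CO2 in concentration-response. CellTiter-Fluor viability read first; BugLite luciferase luminescence after 15 min at room temperature gives Nrf2 activity.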
# Potency is read from the fitted curve at half-maximal effect.
row,SMILES,Potency
1,Cc1cc2c(NC(=O)Nc3ccc(C(C)(C)C)cc3)cccc2nn1,"inconclusive: 16.4 µM [falling, single point]"
2,CC1CCCN(c2ccc(C(=O)NCC3CCCO3)cn2)C1 (stereo not given),"inconclusive: 3.66 µM [activator, full curve, poor fit]"
3,COc1ccc(C2C(C#N)=C(N)Oc3c2sc2nc(C)cc(C)c32)cc1 (stereo not given),inactive
4,CC(=O)c1ccc(N2CCN(S(=O)(=O)c3cccc4nonc34)CC2)cc1,"inconclusive: 0.0065 µM [falling, full curve, poor fit]"
5,Oc1[nH]c(N=C2N=c3ccccc3=N2)c2ccccc12,"inconclusive: 18.4 µM [activator, partial curve]"
6,O=C(Oc1ccc(Br)cc1)c1n[nH]c(=O)c2ccccc12,"inconclusive: 29.1 µM [activator, single point]"
7,CCN(CC)C(=O)CSc1ccccc1N,"inconclusive: 18.4 µM [activator, single point]"
8,COc1ccc(/C(C)=N/Nc2nncc3ccccc23)cc1,"inconclusive: 6.51 µM [activator, partial curve]"
9,O=c1c2ccccc2nnn1CSc1nnc(COc2ccc(Cl)cc2)n1Cc1ccco1,"inconclusive: 13 µM [falling, partial curve, poor fit]"
10,COc1ccccc1C(=O)Nc1ccc(S(=O)(=O)N2CCCCC2)cc1,"inconclusive: 23.1 µM [falling, partial curve]"
11,O=C(CN1CCN(c2ncccn2)CC1)Nc1ccccc1-n1cccc1,"inconclusive: 29.1 µM [falling, single point]"
12,Cc1ccc(Nc2cc(C)c(C#N)c3nc4ccccc4n23)cc1Cl,inactive
13,Cc1nc(SCCC(=O)O)c2cc(-c3ccccc3)sc2n1,"inconclusive: 2.06 µM [falling, full curve]"
14,O=C(NCC(c1ccco1)N1CCc2ccccc2C1)c1ccc(Br)cc1 (stereo not given),inactive
15,Cc1nn(-c2ccccc2)c(C)c1/C=N/Nc1nc2ccccc2[nH]1,"inconclusive: 20.6 µM [activator, partial curve]"
16,O=C1c2cccc3c(N4CCCCC4)ccc(c23)C(=O)N1c1ccccc1O,"inconclusive: 18.4 µM [falling, single point]"
17,COC(=O)c1c(NC(=O)C(Cl)Cl)sc2c1C(C(=O)OC)CC2 (stereo not given),inactive
18,O=S(=O)(Nc1nc2ccccc2nc1NCc1ccco1)c1ccc(Cl)cc1,active: 20.6 µM
19,CCCN(CCC)S(=O)(=O)c1ccc(Cl)c([N+](=O)[O-])c1,inactive
20,CC(C)c1cc(-c2nc(-c3ccccc3)no2)n[nH]1,inactive

# 2 records picked at random from the list so far:
row,SMILES,Potency
5,Oc1[nH]c(N=C2N=c3ccccc3=N2)c2ccccc12,"inconclusive: 18.4 µM [activator, partial curve]"
6,O=C(Oc1ccc(Br)cc1)c1n[nH]c(=O)c2ccccc12,"inconclusive: 29.1 µM [activator, single point]"
